{"source": "PubChem BioAssay AID504834", "about": "(National Center for Advancing Translational Sciences (NCATS), 2011)", "note": "Hit rate of the full screen: of about 320,000 compounds, about 22,000 (6.9%) were called active. The inconclusive results got no clear call from the source; some entries with a clear call stand among them for comparison. The call rests on the fitted dose curve; in most records, active means well fitted inhibition curve with a large enough effect; inconclusive means small, poorly fitted or top-dose-only effect, or another doubt; inactive means no such curve, though single readings can be large or run the other way. A potency beside an inconclusive call is a rough fit, not a confirmed value. On the % scale 0 is the no-effect control and ±100 the full control effect; potency means the concentration at half of the fitted maximal effect.", "data": [{"assay": "Primary qHTS for delayed death inhibitors of the malarial parasite plastid, 96 hour incubation", "conditions": "P. falciparum luciferase reporter growth; series mostly up to 28.7 µM; activity change, negative = inhibition: at the top concentration", "method_in_brief": "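P. falciparum expressing integrated firefly luciferase grown in erythrocytes (2% hematocrit, 0.05% parasitemia final) with compounds for 96 hours at 37 C, 5% CO2. Growth inhibition read as loss of luminescence after adding luciferase detection reagent.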", "values": [{"smiles": "CCN(CC)CCC(=O)N1c2ccccc2CCc2ccc(NC(=O)OC)cc21", "Potency": "inconclusive: 5.22 µM [inhibitor, single point]"}, {"smiles": "CCC(CC)C(=O)N1CC(=O)Nc2ccc(C)cc2C1c1ccccc1", "note": "(stereo not drawn)", "Potency": "inconclusive: 2.94 µM [inhibitor, full curve, poor fit]"}, {"smiles": "Cc1sc2nc(CN3CCOCC3)[nH]c(=S)c2c1C", "Potency": "inconclusive: 5.86 µM [inhibitor, partial curve, poor fit]"}, {"smiles": "Cc1ccccc1OCC(=O)NN1C(=O)C2C3C=CC(O3)C2C1=O", "note": "(stereo not drawn)", "Potency": "inconclusive: 18.5 µM [inhibitor, single point]"}, {"smiles": "COc1ccc(-c2nc(N)nc(C(F)(F)F)c2-c2ccccc2OC)c(O)c1", "Potency": "inconclusive: 9.28 µM [inhibitor, partial curve]"}, {"smiles": "CCc1cc2cc3c(cc2nc1SCC(=O)Nc1cc(OC)c(OC)cc1C(=O)O)OCO3", "Potency": "inconclusive: 18.5 µM [inhibitor, single point]"}, {"smiles": "CCOC(=O)c1c(NC(=S)Nc2ccc(OC)cc2)sc2c1CCC2", "Potency": "inconclusive: 0.329 µM [inhibitor, partial curve, poor fit]"}, {"smiles": "CC(=O)c1ccc(OCc2cc(C(=O)N3CCC(Oc4ccccc4C)CC3)no2)cc1", "Potency": "inconclusive: 9.28 µM [inhibitor, partial curve]"}, {"smiles": "CC(C)(C)c1ccc(/C=N/NC(=S)NC2CCCCC2)cc1", "Potency": "inconclusive: 18.5 µM [inhibitor, single point]"}, {"smiles": "CC(C)n1c(/C=C/[C@@H](O)C[C@@H](O)CC(=O)O)c(-c2ccc(F)cc2)c2ccccc21", "Potency": "inconclusive: 0.0047 µM [inhibitor, full curve, poor fit]"}, {"smiles": "O=C(Nc1cnn(Cc2ccc(F)cc2)c1)c1cc(-c2ccco2)on1", "Potency": "inconclusive: 18.5 µM [inhibitor, single point]"}, {"smiles": "COc1ccc(S(=O)(=O)N2CCCCC2)cc1N(C)S(=O)(=O)c1ccccc1", "activity change, negative = inhibition": "inactive: 256%"}, {"smiles": "COc1ccc(CCNC(=O)COc2cc(C)cc3oc(=O)cc(C)c23)cc1OC", "Potency": "inconclusive: 18.5 µM [inhibitor, single point]"}, {"smiles": "CC(c1nc2ccccc2c(=O)[nH]1)N(C)c1ccc2ccccc2c1", "note": "(stereo not drawn)", "Potency": "active: 14.7 µM"}, {"smiles": "C(#Cc1ccc(C#CCN2CCCC2)cc1)CN1CCCC1", "Potency": "inconclusive: 14.7 µM [inhibitor, partial curve, poor fit]"}, {"smiles": "COc1cc(C#CC#CCN2CCCCC2)ccc1O", "activity change, negative = inhibition": "inactive: 20.4%"}, {"smiles": "Cc1ccc(C(=O)C2CCOC(C)(C)C2)cc1", "note": "(stereo not drawn)", "Potency": "inconclusive: 20.8 µM [inhibitor, partial curve, poor fit]"}, {"smiles": "CC(C)c1ccc(NC(=S)N2CCN(S(=O)(=O)c3ccccc3)CC2)cc1", "Potency": "inconclusive: 10.4 µM [inhibitor, single point]"}, {"smiles": "O=C(c1ccc(CS(=O)(=O)c2cccc(C(F)(F)F)c2)o1)N1CCN(c2ccccn2)CC1", "Potency": "inconclusive: 18.5 µM [inhibitor, single point]"}, {"smiles": "CCCC(=O)c1ccc(N2CCOCC2)c(F)c1", "activity change, negative = inhibition": "inactive: 21.2%"}, {"smiles": "O=C(O)CC1(CC(=O)Nc2cccc(C(=O)O)c2)CCCC1", "activity change, negative = inhibition": "inactive: 10.1%"}, {"smiles": "CCOc1ccc2nc(NC(=O)C3CCCN(S(=O)(=O)c4cccc5nonc45)C3)sc2c1", "note": "(stereo not drawn)", "Potency": "inconclusive: 14.7 µM [inhibitor, partial curve, poor fit]"}, {"smiles": "CCC(=O)NC(NC(=S)Nc1c(C)n(C)n(-c2ccccc2)c1=O)C(Cl)(Cl)Cl", "note": "(stereo not drawn)", "Potency": "inconclusive: 0.828 µM [inhibitor, single point]"}, {"smiles": "CCOC(=O)Cc1csc(N)n1", "activity change, negative = inhibition": "inactive: -15.6%"}, {"smiles": "Cc1ccc(S(=O)(=O)NCC(=O)OCCOc2cccc(Cl)c2)cc1", "activity change, negative = inhibition": "inactive: -12.6%"}, {"smiles": "CCN(CC)S(=O)(=O)c1ccc(N2CCOCC2)c(NC(=O)Cc2ccccc2F)c1", "Potency": "inconclusive: 0.522 µM [inhibitor, full curve]"}, {"smiles": "CCC(=O)Nc1ccc2c(c1)ncn2C", "Potency": "inconclusive: 18.5 µM [inhibitor, single point]"}, {"smiles": "CCc1nnc(NC(=O)CSc2ccc(-c3nc4ccc(C)cc4[nH]3)cn2)s1", "Potency": "inconclusive: 8.28 µM [inhibitor, partial curve, poor fit]"}, {"smiles": "CCOC(=O)c1sc2nc3n(c(=O)c2c1C)CCC(C)CC3", "note": "(stereo not drawn)", "activity change, negative = inhibition": "inactive: -3.17%"}, {"smiles": "COc1ccc(C2NC3=C(CCCC3)C(C#N)(C#N)C2(C#N)C#N)cc1", "note": "(stereo not drawn)", "Potency": "inconclusive: 2.08 µM [inhibitor, single point]"}, {"smiles": "CCN(Cc1ccccc1)C(=O)CS(=O)(=O)c1ccccc1", "activity change, negative = inhibition": "inactive: 42.3%"}, {"smiles": "CCCN(C(=O)c1cc(C)ccc1C)c1c(N)n(Cc2ccccc2)c(=O)[nH]c1=O", "Potency": "inconclusive: 8.28 µM [inhibitor, partial curve, poor fit]"}, {"smiles": "Cc1onc(-c2ccccc2)c1C(=O)NC(=S)NNC(=O)c1ccc(O)cc1", "Potency": "inconclusive: 3.29 µM [inhibitor, full curve, poor fit]"}, {"smiles": "Cc1ccc(C)c(OCC(=O)Nc2ccc(N3CCOCC3)cc2N2CCOCC2)c1", "Potency": "inconclusive: 14.7 µM [inhibitor, single point]"}, {"smiles": "CC(NC(=O)c1ccncc1)C(c1cccs1)N1CCOCC1", "note": "(stereo not drawn)", "activity change, negative = inhibition": "inactive: -5.99%"}, {"smiles": "CC(=O)Nc1ccc(C(=O)OCC(=O)N2CCC(Cc3ccccc3)CC2)cc1", "Potency": "inconclusive: 18.5 µM [inhibitor, single point]"}, {"smiles": "COc1ccc2cc(C(=O)C3CCCN(C(=O)/C=C/c4ccccn4)C3)ccc2c1", "note": "(stereo not drawn)", "Potency": "inconclusive: 18.5 µM [inhibitor, single point]"}, {"smiles": "O=C1CCC(c2ccc(-n3ccnc3)cc2)=NN1", "activity change, negative = inhibition": "inactive: -10%"}, {"smiles": "OCC1(CCOc2ccccc2)CCN(CC2=Cc3cc(Cl)ccc3OC2)CC1", "Potency": "inconclusive: 10.4 µM [inhibitor, single point]"}, {"smiles": "Nn1cnc2cc3ccccc3cc2c1=O", "activity change, negative = inhibition": "inactive: 17.8%"}, {"smiles": "Cc1ccc2cccc(OCC(=O)NCc3ccco3)c2n1", "Potency": "inconclusive: 3.7 µM [inhibitor, single point]"}, {"smiles": "COC(=O)c1cccc(N2C(=O)c3cccnc3C2=O)c1", "Potency": "inconclusive: 5.22 µM [inhibitor, single point]"}, {"smiles": "CCOC(=O)N1CCC(NC(=O)CSc2cc(=O)n(C)c3ccccc23)CC1", "Potency": "active: 13.1 µM"}, {"smiles": "Cc1cccc(Nc2nc(N)nc(CN3CCN(Cc4ccc5c(c4)OCO5)CC3)n2)c1", "Potency": "active: 13.1 µM"}, {"smiles": "COc1cc(CNCCN(C)C)c(Br)cc1OC1CCCC1", "Potency": "inconclusive: 14.7 µM [inhibitor, single point]"}, {"smiles": "CCc1ccc(-c2cc(C)no2)cc1S(=O)(=O)Nc1cc(C)on1", "Potency": "inconclusive: 16.5 µM [inhibitor, single point]"}, {"smiles": "CC(C)NC(=O)COc1coc(CN2CCN(c3ccccc3)CC2)cc1=O", "Potency": "inconclusive: 14.7 µM [inhibitor, single point]"}, {"smiles": "O=C1NC(=O)N(c2ccccc2)C(=O)/C1=C\\c1ccc2c3c(cccc13)CC2", "activity change, negative = inhibition": "inactive: 34.2%"}, {"smiles": "COc1ccc(C(C(=O)NCC2CCCO2)N(C(=O)c2snc(C(N)=O)c2N)c2ccc(C)cc2)cc1OC", "note": "(stereo not drawn)", "Potency": "active: 13.1 µM"}, {"smiles": "COC(=O)c1ccc2[nH]ccc2c1", "Potency": "inconclusive: 18.5 µM [inhibitor, single point]"}, {"smiles": "CCC(NC(=O)CCC(=O)N1CCN(S(=O)(=O)c2ccc(C)cc2)CC1)c1ccc(C)cc1", "note": "(stereo not drawn)", "Potency": "inconclusive: 18.5 µM [inhibitor, single point]"}, {"smiles": "COCCn1c(=NC(=O)/C=C/c2ccccc2)sc2cc(NC(C)=O)ccc21", "Potency": "active: 2.62 µM"}, {"smiles": "COCC(C)n1c(C)cc(C(=O)COC(=O)CNC(=O)c2ccccc2)c1C", "note": "(stereo not drawn)", "activity change, negative = inhibition": "inactive: 36.2%"}, {"smiles": "COc1cc(OC)c(OC)cc1CNCCc1ccc(F)cc1", "Potency": "inconclusive: 10.4 µM [inhibitor, single point]"}, {"smiles": "COc1ccc(CN(C)C(=O)CCN(c2ccccc2)S(=O)(=O)c2ccc(C)cc2)c(OC)c1", "Potency": "inconclusive: 8.28 µM [inhibitor, single point]"}, {"smiles": "CCSc1nnc(N2C(=O)C(O)=C(C(=O)c3ccco3)C2c2cccc(OC)c2)s1", "note": "(stereo not drawn)", "Potency": "inconclusive: 16.5 µM [inhibitor, partial curve, poor fit]"}, {"smiles": "O=C(CN1CCCCC1)Nc1cc(S(=O)(=O)N2CCOCC2)ccc1N1CCCC1", "Potency": "inconclusive: 13.1 µM [inhibitor, single point]"}, {"smiles": "CC1(C)Cc2c(sc3ncnc(NN)c23)CO1", "activity change, negative = inhibition": "inactive: 26.9%"}, {"smiles": "Cn1c(C(=O)O)c(CC(=O)N2CCC(Cc3ccccc3)CC2)c2ccccc21", "Potency": "inconclusive: 18.5 µM [inhibitor, single point]"}, {"smiles": "S=C(NCc1ccco1)N1CCN(c2ccccn2)CC1", "activity change, negative = inhibition": "inactive: 18.6%"}, {"smiles": "O=C(CSc1nnc(SCc2ccc(Cl)cc2)s1)N/N=C/c1ccccc1Cl", "Potency": "inconclusive: 3.7 µM [inhibitor, single point]"}, {"smiles": "Nc1ccc(C(=O)Nc2ccc(Nc3ccncc3)cc2)cc1", "Potency": "inconclusive: 8.28 µM [inhibitor, partial curve, poor fit]"}, {"smiles": "COc1ccc(-c2cc(C(F)(F)F)nc(SCC(=O)N3CC(C)OC(C)C3)n2)cc1OC", "note": "(stereo not drawn)", "Potency": "inconclusive: 18.5 µM [inhibitor, single point]"}, {"smiles": "Cc1ccc(-c2nc(N)sc2-c2ccc(C)cc2)cc1", "activity change, negative = inhibition": "inactive: -14.9%"}, {"smiles": "N#CC1=C2N=C(N)c3c(sc4c3CCCCC4)N2C2=C(C(=O)CCC2)C1c1ccccc1", "note": "(stereo not drawn)", "Potency": "active: 4.65 µM"}, {"smiles": "COc1ccc(C)cc1NC(=O)c1cc(S(=O)(=O)N2CCC3(CC2)OCCO3)ccc1F", "Potency": "inconclusive: 18.5 µM [inhibitor, single point]"}, {"smiles": "COc1cccc(OC)c1C(=O)NC(=S)N1CCCCC1c1cccnc1", "note": "(stereo not drawn)", "Potency": "inconclusive: 18.5 µM [inhibitor, single point]"}, {"smiles": "COc1ccccc1OCCNC(=O)C1CCCCC1", "Potency": "inconclusive: 3.29 µM [inhibitor, partial curve, poor fit]"}]}]}
